# The other results are listed elsewhere or left out. These are further read-outs of the screen, such as a control signal, another cell line or another target. No call is given for them. Most of these compounds were active or inconclusive in the main read-out, so they are no random draw. Potencies come from curve fits of mixed quality, noted in brackets.
# Assay: qHTS Assay to Find Inhibitors of Chronic Active B-Cell Receptor Signaling
# Settings: ABC-DLBCL IkBa-CBG/CBR reporter, luminescence ratio (green luciferase fused to IkBa over red control in TMD8 lymphoma cells), 4 h
# Outline: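 Compounds up to 46 uM were incubated four hours with TMD8 cells whose green CBG68 luciferase is fused to IkappaBalpha; red CBR luminescence normalised the signal, and concentration-effect curves were fitted to fusion, red and ratio data.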
# [1] = measured here: CBR red luminescence, cell number
# [2] = measured here: IkBa-CBG green luminescence
SMILES,AC50 [1],AC50 [2]
Cc1cc(NC(=O)c2ccc(Br)c([N+](=O)[O-])c2)no1,"5.62 µM [falling, partial curve, poor fit]",
CSc1ccccc1C(=O)Nc1nccs1,"0.00461 µM [falling, full curve, poor fit]",
COC(=O)c1cc(=O)n(Cc2ccco2)c(=Nc2ccc(F)c(Cl)c2)s1,"6.51 µM [falling, partial curve, poor fit]","11.6 µM [rising, partial curve, poor fit]"
Cc1ccc2nc(SCc3nnc(-c4ccccc4Br)o3)[nH]c2c1,"35.5 µM [falling, single point]",
CCn1c(/C(C#N)=C/c2ccccc2Cl)nc2ccccc21,"11.2 µM [falling, partial curve]",
Cc1ccc(OCC(=O)Nc2ccc3c(c2)C(=O)NC3=O)cc1,"12.6 µM [falling, partial curve, poor fit]",
Nc1c(-c2ccccc2)cnn1-c1cccc(Cl)c1,"11.2 µM [falling, partial curve]",
Cc1ccc(S(=O)(=O)N/N=C/c2ccccc2O)cc1[N+](=O)[O-],"15.8 µM [rising, partial curve, poor fit]",
C/C(=N\NC(=O)c1ccc(Cn2cc([N+](=O)[O-])cn2)o1)c1cccc(NC(=O)C(C)C)c1,"32.6 µM [falling, single point]",
CCOC(=O)c1cccc(NC(=O)CSc2nc3cccnc3n2C)c1,"29.1 µM [falling, single point]",
CCN1CCc2c(sc(NC(=O)c3ccc4ccccc4c3)c2C(N)=O)C1,"12.6 µM [falling, single point]",
COCCCNC(=O)Cn1nc(-c2cccc(OC)c2)ccc1=O,"25.1 µM [falling, single point]",
CC(C)NC(=O)/C(C#N)=C/c1cccc(NC(=O)c2ccccc2Cl)c1,"14.6 µM [falling, partial curve, poor fit]",
COc1ccc(S(=O)(=O)N2CCOCC2)cc1NC(=O)COc1ccc2ccc(=O)oc2c1,"32.6 µM [rising, single point]",
CCC(=O)Nc1ccc2c(c1)ncn2-c1ccccc1OC,"4.47 µM [falling, partial curve, poor fit]",
Cc1cc(C(=O)OCC(=O)Nc2ccc(F)cc2F)c(C)o1,"3.55 µM [falling, full curve]",
CCOc1ccc(NC(=O)CC2C(=O)N(C)C(=S)N2CCCc2ccccc2)cc1 (configuration not stated),"16.4 µM [falling, single point]",
Cc1ccc2nc(-c3ccc(NC(=O)CN4CCN(c5ccccn5)CC4)cc3)sc2c1,"6.31 µM [rising, single point]",
CCc1ccccc1NC(=O)Nc1ccsc1C(=O)OC,"12.6 µM [falling, partial curve, poor fit]",
COc1ccc(C(=O)NNC(=S)NC2CCCCC2)cc1OC,"3.98 µM [falling, partial curve, poor fit]",
COc1ccc(-c2cc(C(=O)OCC(=O)N3CCCC3)c3ccccc3n2)cc1,"1.3 µM [falling, partial curve]",

# In the list so far, 2 contain bromine:
SMILES,AC50 [1],AC50 [2]
Cc1cc(NC(=O)c2ccc(Br)c([N+](=O)[O-])c2)no1,"5.62 µM [falling, partial curve, poor fit]",
Cc1ccc2nc(SCc3nnc(-c4ccccc4Br)o3)[nH]c2c1,"35.5 µM [falling, single point]",

# Additional entries follow.

SMILES,AC50 [1],AC50 [2]
CCOC(=O)C1CCC/C1=N\NC(=O)CN(c1cc(OC)ccc1OC)S(=O)(=O)c1ccccc1 (configuration not stated),"3.16 µM [falling, full curve, poor fit]",
CN(Cc1ccccc1)C(=O)c1ccc(NC(=O)c2ccccc2)cc1,"22.4 µM [rising, single point]",
N#CCC(=O)N/N=C/c1ccc(Cl)cc1,"8.91 µM [falling, partial curve, poor fit]",
O=C(NC(=S)N1CCCC(C(F)(F)F)C1)c1ccc(F)cc1 (configuration not stated),"35.5 µM [rising, single point]",
COc1ccc(NC(=S)Nc2ncccc2C)cc1OC,"11.2 µM [falling, single point]",
N#Cc1ccccc1NC(=O)COc1ccc2c(c1)OCO2,"12.6 µM [falling, single point]",
O=C(CSc1nnc(CCc2ccccc2)n1-c1ccc(Cl)cc1)NCc1ccccc1,"18.4 µM [falling, single point]",
CSCc1nnc(NC(=O)c2ccc(S(=O)(=O)N(CC(C)C)CC(C)C)cc2)o1,"12.6 µM [falling, single point]",
Nc1c(S(=O)(=O)c2cccc(Cl)c2)c2nc3ccccc3nc2n1CCN1CCOCC1,"10 µM [falling, partial curve, poor fit]",
COc1ccc(NC(=S)N(CCCN2CCCCCC2)Cc2cccs2)cc1,"20 µM [falling, partial curve, poor fit]",
O=C(Nc1nc2ccccc2[nH]1)c1ccc([N+](=O)[O-])cc1,"1.58 µM [falling, full curve]",
O=C(O)CSc1nc2ccc(C(=O)c3ccccc3)cc2[nH]1,,"2.51 µM [rising, partial curve, poor fit]"
O=C(/C=N/O)Nc1ccc(F)cc1,"20 µM [falling, single point]",
COCCN1CCn2c(nc3cc(NC(=O)c4cccs4)ccc32)C1,"9.2 µM [falling, partial curve]",
Cc1sc(NC(=O)c2ccccc2F)c(CN2CCCCC2C)c1C (configuration not stated),"25.9 µM [falling, single point]",
COCCCNC(NC(=O)c1ccc(OC)cc1)C(Cl)(Cl)Cl (configuration not stated),"14.1 µM [rising, single point]",
Cc1c([N+](=O)[O-])c(C(=O)Nc2ccc3c(c2)OCCO3)nn1C,"20.6 µM [falling, partial curve, poor fit]",
COc1ccc(Cl)cc1NC(=O)Cn1cnc2c1c(=O)n(C)c(=O)n2C,"6.31 µM [rising, single point]",
CSc1nc2ccc3nc(NC(=O)c4cccs4)sc3c2s1,"22.4 µM [falling, partial curve, poor fit]",
O=C(Nc1cccc(NS(=O)(=O)c2ccc(S(=O)(=O)NC3CC3)cc2)c1)c1ccccn1,"35.5 µM [falling, single point]",
